Results deposited as PubChem BioAssay AID504744 (Drosophila RNAi Screening Center, 2011).
In all, the deposit lists about 23,000 reagents; this is an unselected part of those that have a named target and a result. Over the whole deposit, 98 (0.43%) are marked active. 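Only hit calls are given; the phospho-dAkt signals, z-scores and hit direction were not deposited.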 Names joined by + are all predicted targets of the reagent.

- Screen: 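Uncover factors, including feedback loops, that control dAkt activation in fly cells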 (primary screen)
- System: Drosophila Kc167 cells
- Reagents: long dsRNA against Drosophila genes, 250 ng dsRNA per well of a 384-well plate
- Timing: 3 days of knock-down, then overnight serum-free starvation before stimulation
- Treatment: bovine insulin at 387 nM for 10 minutes after 12 h without serum
- Measured: 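In-cell antibody fluorescence for phospho-dAkt in each well over DNA-dye signal, with log2 residuals expressed as z-scores adjusted for cell count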
- Hit rule: 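Hit in the insulin screen when the two-replicate mean z-score is more extreme than plus or minus 2.5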

| target | PubChem SID | Call |
| --- | --- | --- |
| CG16787 | SID104184074 | inactive |
| CG32603 | SID104199201 | inactive |
| CG32603 | SID104201293 | inactive |
| CG15059 | SID104199425 | inactive |
| CG6443 | SID104182750 | inactive |
| Spg7 | SID104198261 | inactive |
| CG12836 | SID104185974 | inactive |
| BomBc2 | SID104186294 | inactive |
| Vps33B | SID104195514 | inactive |
| CG6791 | SID104195910 | inactive |
| CG11911 | SID104180123 | inactive |
| CG18128 | SID104184096 | inactive |
| CG15255 | SID104181661 | inactive |
| Sirt1 | SID104183227 | inactive |
| t | SID104197607 | inactive |
| PEK | SID104192153 | inactive |
| pll | SID104196818 | inactive |
| CG3592 | SID104198107 | inactive |
| CG7394 | SID104190627 | inactive |
| CG17760 | SID104186486 | inactive |
| ph-d | SID104198611 | inactive |
| CG9698 | SID104196331 | inactive |
| sicily | SID104199496 | inactive |
| CG6178 | SID104195776 | inactive |
| boil | SID104197664 | inactive |
| prod | SID104187459 | inactive |
| Rcd5 | SID104187972 | inactive |
| CG14327 | SID104194598 | inactive |
| CG10859 | SID104181902 | inactive |
| IPIP | SID104181956 | inactive |
| CG30325 | SID104185477 | inactive |
| CG8299 | SID104186931 | inactive |
| rost | SID104183395 | inactive |
| ChLD3 | SID104182432 | inactive |
| CG33341 | SID104202246 | inactive |
| CG12229 | SID104189660 | inactive |
| Slc45-1 | SID104190219 | inactive |
| CG8476 | SID104196218 | inactive |
| Caf1-55 | SID104196388 | inactive |
| CG30479 | SID104186527 | inactive |
| shu | SID104184276 | inactive |
| CG6424 | SID104185728 | inactive |
| CG14309 | SID104194580 | inactive |
| CG32454 | SID104191444 | inactive |
| CG3213 | SID104180368 | inactive |
| Trs20 | SID104190281 | inactive |
| CG9016 | SID104182919 | inactive |
| I-2 | SID104190986 | inactive |
| l(3)mbn | SID104188585 | inactive |
| smo | SID104180629 | inactive |
| CG18262 | SID104197941 | inactive |
| CG9452 | SID104190867 | inactive |
| CG6426 | SID104186777 | inactive |
| Asator | SID104196928 | inactive |
| CG15036 | SID104197760 | inactive |
| Ssk | SID104190548 | inactive |
| NdufA3 | SID104198223 | inactive |
| CG5676 | SID104182667 | inactive |
| out | SID104199139 | inactive |
| Parp1 | SID104187517 | inactive |
| Parp1 | SID104187570 | inactive |
| Parp1 | SID104187572 | inactive |
| CG2021 | SID104188338 | inactive |
| CG13032 | SID104189704 | inactive |
| CG6656 | SID104195877 | inactive |
| Rab39 | SID104197619 | inactive |
| CG31804 | SID104202106 | inactive |
| scw | SID104181503 | inactive |
| scw | SID104201044 | inactive |
| CG9287 | SID104182978 | inactive |
| CG9287 | SID104202149 | inactive |
| CG11698 | SID104194147 | inactive |
| Cep89 | SID104186902 | inactive |
| cic | SID104194068 | inactive |
| cic | SID104195500 | inactive |
| cic | SID104196710 | inactive |
| cic | SID104201035 | inactive |
| Uggt | SID104191107 | inactive |
| CG8079 | SID104186862 | inactive |
| CG8079 | SID104186863 | inactive |
| ckd | SID104188210 | inactive |
| Acadvl | SID104186814 | inactive |
| CG5323 | SID104186721 | inactive |
| CG34022 (retired record) | SID104187741 | inactive |
| Ppi1 | SID104195213 | inactive |
| Miga | SID104197613 | inactive |
| lin | SID104187436 | inactive |
| Octbeta1R | SID104195926 | inactive |
| Rsph9 | SID104181386 | inactive |
| Gr22c | SID104201654 | inactive |
| CaMKII | SID104197006 | inactive |
| CG7320 | SID104190602 | inactive |
| fus | SID104185361 | inactive |
| fus | SID104186899 | inactive |
| kek4 | SID104183012 | inactive |
| Obp56f | SID104201790 | inactive |
| Tgi | SID104189585 | inactive |
| Tgi | SID104189586 | inactive |
| eater | SID104195761 | inactive |
| eater | SID104201779 | inactive |
| fd3F (retired record) | SID104197635 | inactive |
| Gr59f | SID104184291 | inactive |
| Rpt2 | SID104196591 | inactive |
| Arl6IP1 | SID104194023 | inactive |
| CG11251 | SID104189617 | inactive |
| alien + CG17906 | SID104182433 | inactive |
| vito | SID104201442 | inactive |
| Muc68Ca | SID104190104 | inactive |
| Muc68Ca | SID104190105 | inactive |
| EloB | SID104196455 | inactive |
| Gnpat | SID104196752 | inactive |
| CG8630 | SID104196233 | inactive |
| Herc4 | SID104188423 | inactive |
| grp + CG31782 (retired record) | SID104183333 | inactive |
| M1BP | SID104196358 | inactive |
| CG13108 | SID104181998 | inactive |
| Gr10a | SID104198689 | inactive |
| Gr10a | SID104202151 | inactive |
| Vmat + CG13330 | SID104186157 | inactive |
| GluRIIE | SID104193223 | inactive |
| Mondo | SID104182459 | inactive |
| Mondo | SID104182460 | inactive |
| Mondo | SID104201597 | inactive |
| MetRS | SID104201973 | inactive |
| CG18586 | SID104190117 | inactive |
| CG13474 | SID104189810 | inactive |
| Uqcc1 + CG9948 | SID104189482 | inactive |
| ATPsynF | SID104184274 | inactive |
| Cnot4 | SID104182622 | inactive |
| Cnot4 | SID104182623 | inactive |
| CG32109 | SID104189608 | inactive |
| CG14200 | SID104199347 | inactive |
| CG31861 | SID104201350 | inactive |
| GstT4 | SID104199549 | inactive |
| Obp83g | SID104192061 | inactive |
| Gpxl | SID104186330 | inactive |
| CG9485 | SID104184349 | inactive |
| CG6873 | SID104199806 | inactive |
| CG18469 | SID104201486 | inactive |
| PGRP-LE | SID104199929 | inactive |
| slpr | SID104198017 | inactive |
| Prosbeta1 | SID104186951 | active |
| Septin5 | SID104186635 | inactive |
| Sr-CI | SID104180582 | inactive |
| Mst84Dc | SID104192391 | inactive |
| apn | SID104194916 | inactive |
| CG4210 | SID104195343 | inactive |
| CG3961 | SID104190182 | inactive |
| CG3961 | SID104190183 | inactive |
| gogo | SID104189862 | inactive |
| gogo | SID104189863 | inactive |
| CG32945 | SID104191806 | inactive |
| Pos | SID104195207 | inactive |
| CG10469 | SID104189521 | inactive |
| CG33695 + cana | SID104180955 | inactive |
| CG33695 + cana | SID104183295 | inactive |
| CG11537 | SID104187992 | inactive |
| AMPdeam | SID104198788 | inactive |
| AMPdeam | SID104199158 | active |
| AMPdeam | SID104199160 | inactive |
| AMPdeam | SID104199519 | inactive |
| CG30096 | SID104201413 | inactive |
| CG15044 | SID104199412 | inactive |
| CG15044 | SID104201151 | inactive |
| CG3927 | SID104184225 | inactive |
| CG3927 | SID104202172 | inactive |
| ATPsynCF6L | SID104188024 | inactive |
| S2P | SID104187103 | inactive |
| CG31415 | SID104201885 | inactive |
| nw | SID104186541 | inactive |
| nw | SID104186688 | inactive |
| Nup44A | SID104187040 | inactive |
| viaf | SID104190118 | inactive |
| indra | SID104188350 | inactive |
| CG5391 | SID104195582 | inactive |
| apolpp | SID104197008 | inactive |
| CG9672 | SID104199993 | inactive |
| NdufV3 | SID104199215 | inactive |
| RnrS | SID104187325 | inactive |
| Hsc70-3 | SID104200045 | inactive |
| Osi17 | SID104192076 | inactive |
| CG6695 | SID104195890 | inactive |
| CG1146 | SID104187981 | inactive |
| Kdm4A | SID104186378 | inactive |
| CG11404 | SID104191448 | inactive |
| mxc | SID104197611 | inactive |
| CG10433 | SID104183860 | inactive |
| Pex7 | SID104190443 | inactive |
| Sem1 | SID104182074 | inactive |
| CG34266 | SID104188115 | inactive |
| CG13086 | SID104181982 | inactive |
| CG15225 | SID104184024 | inactive |
| CG34007 | SID104181582 | inactive |
| CG13185 | SID104186102 | inactive |
| CR42545 | SID104183501 | inactive |
| Echs1 | SID104186791 | inactive |
| RpL19 | SID104184441 | inactive |
| Ser8 | SID104186683 | inactive |
| Cpsf73 | SID104196083 | inactive |
| Ir62a | SID104188042 | inactive |

Reagents listed above called active (2):
| target | PubChem SID | Call |
| --- | --- | --- |
| Prosbeta1 | SID104186951 | active |
| AMPdeam | SID104199158 | active |
